In patent US20250283871A1, “COMPOSITIONS AND METHODS FOR MODULATING THE INTERACTION BETWEEN SS18-SSX FUSION ONCOPROTEIN AND NUCLEOSOMES” (Dana-Farber Cancer Institute, Inc., priority 2020, published 2025):

B1: NLRX1 (protein, UniProt Q86UT6 87-975, looked up)
NLR family member X1: AEWFSRLPREERQFGPTFALDTVHVDPVIRESTPDELLRPPAELALEHQPPQAGLPPLALSQLFNPDACGRRVQTVVLYGTVGTGKSTLVRKMVLDWCYGRLPAFELLIPFSCEDLSSLGPAPASLCQLVAQRYTPLKEVLPLMAAAGSHLLFVLHGLEHLNLDFRLAGTGLCSDPEEPQEPAAIIVNLLRKYMLPQASILVTTRPSAIGRIPSKYVGRYGEICGFSDTNLQKLYFQLRLNQPYCGYAVGGSGVSATPAQRDHLVQMLSRNLEGHHQIAAACFLPSYCWLVCATLHFLHAPTPAGQTLTSIYTSFLRLNFSGETLDSTDPSNLSLMAYAARTMGKLAYEGVSSRKTYFSEEDVCGCLEAGIRTEEEFQLLHIFRRDALRFFLAPCVEPGRAGTFVFTVPAMQEYLAALYIVLGLRKTTLQKVGKEVAELVGRVGEDVSLVLGIMAKLLPLRALPLLFNLIKVVPRVFGRMVGKSREAVAQAMVLEMFREEDYYNDDVLDQMGASILGVEGPRRHPDEPPEDEVFELFPMFMGGLLSAHNRAVLAQLGCPIKNLDALENAQAIKKKLGKLGRQVLPPSELLDHLFFHYEFQNQRFSAEVLSSLRQLNLAGVRMTPVKCTVVAAVLGSGRHALDEVNLASCQLDPAGLRTLLPVFLRARKLGLQLNSLGPEACKDLRDLLLHDQCQITTLRLSNNPLTAAGVAVLMEGLAGNTSVTHLSLLHTGLGDEGLELLAAQLDRNRQLQELNVAYNGAGDTAALALARAAREHPSLELLHLYFNELSSEGRQVLRDLGGAAEGGARVVVSLTEGTAVSEYWSVILSEVQRNLNSWDRARVQRHLELLLRDLEDSRGATLNPWRKAQLLRVEGEVRALLEQLGSSGS
B2: SLC25A22 (protein, UniProt Q9H936 1-323, looked up)
Mitochondrial glutamate …: MADKQISLPAKLINGGIAGLIGVTCVFPIDLAKTRLQNQQNGQRVYTSMSDCLIKTVRSEGYFGMYRGAAVNLTLVTPEKAIKLAANDFFRHQLSKDGQKLTLLKEMLAGCGAGTCQVIVTTPMEMLKIQLQDAGRIAAQRKILAAQGQLSAQGGAQPSVEAPAAPRPTATQLTRDLLRSRGIAGLYKGLGATLLRDVPFSVVYFPLFANLNQLGRPASEEKSPFYVSFLAGCVAGSAAAVAVNPCDVVKTRLQSLQRGVNEDTYSGILDCARKILRHEGPSAFLKGAYCRALVIAPLFGIAQVVYFLGIAESLLGLLQDPQA
B3: PDHA1 (protein, UniProt P08559 30-390, looked up)
Pyruvate dehydrogenase E1 …: FANDATFEIKKCDLHRLEEGPPVTTVLTREDGLKYYRMMQTVRRMELKADQLYKQKIIRGFCHLCDGQEACCVGLEAGINPTDHLITAYRAHGFTFTRGLSVREILAELTGRKGGCAKGKGGSMHMYAKNFYGGNGIVGAQVPLGAGIALACKYNGKDEVCLTLYGDGAANQGQIFEAYNMAALWKLPCIFICENNRYGMGTSVERAAASTDYYKRGDFIPGLRVDGMDILCVREATRFAAAYCRSGKGPILMELQTYRYHGHSMSDPGVSYRTREEIQEVRSKSDPIMLLKDRMVNSNLASVEELKEIDVEVRKEIEDAAQFATADPEPPLEELGYHIYSSDPPFEVRGANQWIKFKSVS
B4: IDH2 (protein, UniProt P48735 40-452, looked up)
Isocitrate dehydrogenase …: ADKRIKVAKPVVEMDGDEMTRIIWQFIKEKLILPHVDIQLKYFDLGLPNRDQTDDQVTIDSALATQKYSVAVKCATITPDEARVEEFKLKKMWKSPNGTIRNILGGTVFREPIICKNIPRLVPGWTKPITIGRHAHGDQYKATDFVADRAGTFKMVFTPKDGSGVKEWEVYNFPAGGVGMGMYNTDESISGFAHSCFQYAIQKKWPLYMSTKNTILKAYDGRFKDIFQEIFDKHYKTDFDKNKIWYEHRLIDDMVAQVLKSSGGFVWACKNYDGDVQSDILAQGFGSLGLMTSVLVCPDGKTIEAEAAHGTVTRHYREHQKGRPTSTNPIASIFAWTRGLEHRGKLDGNQDLIRFAQMLEKVCVETVESGAMTKDLAGCIHGLSNVKLNEHFLNTTDFLDTIKSNLDRALGRQ
B5: SRPRB (protein, UniProt Q9Y5M8 1-271, looked up)
Signal recognition particle …: MASADSRRVADGGGAGGTFQPYLDTLRQELQQTDPTLLSVVVAVLAVLLTLVFWKLIRSRRSSQRAVLLVGLCDSGKTLLFVRLLTGLYRDTQTSITDSCAVYRVNNNRGNSLTLIDLPGHESLRLQFLERFKSSARAIVFVVDSAAFQREVKDVAEFLYQVLIDSMGLKNTPSFLIACNKQDIAMAKSAKLIQQQLEKELNTLRVTRSAAPSTLDSSSTAPAQLGKKGKEFEFSQLPLKVEFLECSAKGGRGDVGSADIQDLEKWLAKIA
B6: AAAS (protein, UniProt Q9NRG9 2-546, looked up)
Aladin: CSLGLFPPPPPRGQVTLYEHNNELVTGSSYESPPPDFRGQWINLPVLQLTKDPLKTPGRLDHGTRTAFIHHREQVWKRCINIWRDVGLFGVLNEIANSEEEVFEWVKTASGWALALCRWASSLHGSLFPHLSLRSEDLIAEFAQVTNWSSCCLRVFAWHPHTNKFAVALLDDSVRVYNASSTIVPSLKHRLQRNVASLAWKPLSASVLAVACQSCILIWTLDPTSLSTRPSSGCAQVLSHPGHTPVTSLAWAPSGGRLLSASPVDAAIRVWDVSTETCVPLPWFRGGGVTNLLWSPDGSKILATTPSAVFRVWEAQMWTCERWPTLSGRCQTGCWSPDGSRLLFTVLGEPLIYSLSFPERCGEGKGCVGGAKSATIVADLSETTIQTPDGEERLGGEAHSMVWDPSGERLAVLMKGKPRVQDGKPVILLFRTRNSPVFELLPCGIIQGEPGAQPQLITFHPSFNKGALLSVGWSTGRIAHIPLYFVNAQFPRFSPVLGRAQEPPAGGGGSIHDLPLFTETSPTSAPWDPLPGPPPVLPHSPHSHL
B7: VANGL2 (protein, UniProt Q9ULK5 1-521, looked up)
Vang-like protein 2: MDTESQYSGYSYKSGHSRSSRKHRDRRDRHRSKSRDGGRGDKSVTIQAPGEPLLDNESTRGDERDDNWGETTTVVTGTSEHSISHDDLTRIAKDMEDSVPLDCSRHLGVAAGATLALLSFLTPLAFLLLPPLLWREELEPCGTACEGLFISVAFKLLILLLGSWALFFRRPKASLPRVFVLRALLMVLVFLLVVSYWLFYGVRILDARERSYQGVVQFAVSLVDALLFVHYLAVVLLELRQLQPQFTLKVVRSTDGASRFYNVGHLSIQRVAVWILEKYYHDFPVYNPALLNLPKSVLAKKVSGFKVYSLGEENSTNNSTGQSRAVIAAAARRRDNSHNEYYYEEAEHERRVRKRRARLVVAVEEAFTHIKRLQEEEQKNPREVMDPREAAQAIFASMARAMQKYLRTTKQQPYHTMESILQHLEFCITHDMTPKAFLERYLAAGPTIQYHKERWLAKQWTLVSEEPVTNGLKDGIVFLLKRQDFSLVVSTKKVPFFKLSEEFVDPKSHKFVMRLQSETSV
B8: AASS (protein, UniProt Q9UDR5 28-926, looked up)
Alpha-aminoadipic …: VRREDVNAWERRAPLAPKHIKGITNLGYKVLIQPSNRRAIHDKDYVKAGGILQEDISEACLILGVKRPPEEKLMSRKTYAFFSHTIKAQEANMGLLDEILKQEIRLIDYEKMVDHRGVRVVAFGQWAGVAGMINILHGMGLRLLALGHHTPFMHIGMAHNYRNSSQAVQAVRDAGYEISLGLMPKSIGPLTFVFTGTGNVSKGAQAIFNELPCEYVEPHELKEVSQTGDLRKVYGTVLSRHHHLVRKTDAVYDPAEYDKHPERYISRFNTDIAPYTTCLINGIYWEQNTPRLLTRQDAQSLLAPGKFSPAGVEGCPALPHKLVAICDISADTGGSIEFMTECTTIEHPFCMYDADQHIIHDSVEGSGILMCSIDNLPAQLPIEATECFGDMLYPYVEEMILSDATQPLESQNFSPVVRDAVITSNGTLPDKYKYIQTLRESRERAQSLSMGTRRKVLVLGSGYISEPVLEYLSRDGNIEITVGSDMKNQIEQLGKKYNINPVSMDICKQEEKLGFLVAKQDLVISLLPYVLHPLVAKACITNKVNMVTASYITPALKELEKSVEDAGITIIGELGLDPGLDHMLAMETIDKAKEVGATIESYISYCGGLPAPEHSNNPLRYKFSWSPVGVLMNVMQSATYLLDGKVVNVAGGISFLDAVTSMDFFPGLNLEGYPNRDSTKYAEIYGISSAHTLLRGTLRYKGYMKALNGFVKLGLINREALPAFRPEANPLTWKQLLCDLVGISPSSEHDVLKEAVLKKLGGDNTQLEAAEWLGLLGDEQVPQAESILDALSKHLVMKLSYGPEEKDMIVMRDSFGIRHPSGHLEHKTIDLVAYGDINGFSAMAKTVGLPTAMAAKMLLDGEIGAKGLMGPFSKEIYGPILERIKAEGIIYTTQSTIKP
B9: IKZF4 (protein, UniProt Q9H2S9 1-585, looked up)
Zinc finger protein Eos: MHTPPALPRRFQGGGRVRTPGSHRQGKDNLERDPSGGCVPDFLPQAQDSNHFIMESLFCESSGDSSLEKEFLGAPVGPSVSTPNSQHSSPSRSLSANSIKVEMYSDEESSRLLGPDERLLEKDDSVIVEDSLSEPLGYCDGSGPEPHSPGGIRLPNGKLKCDVCGMVCIGPNVLMVHKRSHTGERPFHCNQCGASFTQKGNLLRHIKLHSGEKPFKCPFCNYACRRRDALTGHLRTHSVSSPTVGKPYKCNYCGRSYKQQSTLEEHKERCHNYLQSLSTEAQALAGQPGDEIRDLEMVPDSMLHSSSERPTFIDRLANSLTKRKRSTPQKFVGEKQMRFSLSDLPYDVNSGGYEKDVELVAHHSLEPGFGSSLAFVGAEHLRPLRLPPTNCISELTPVISSVYTQMQPLPGRLELPGSREAGEGPEDLADGGPLLYRPRGPLTDPGASPSNGCQDSTDTESNHEDRVAGVVSLPQGPPPQPPPTIVVGRHSPAYAKEDPKPQEGLLRGTPGPSKEVLRVVGESGEPVKAFKCEHCRILFLDHVMFTIHMGCHGFRDPFECNICGYHSQDRYEFSSHIVRGEHKVG

test system: BAF complex subunits and histone proteins; test: Mass spectrometry proteomics of purified HA-SS18 WT and HA-SS18-SSX1 complexes (Tables 5A-5E); parameters: species or system human; details: HA-SS18SSX1 purification, NE (soluble nuclear extract) fraction, HEK-293T; peptides per identified protein

Molecule	Total (total peptides)	Unique (unique peptides)
B1	4	4
B2	4	4
B3	4	4
B4	4	3
B5	3	3
B6	4	4
B7	4	4
B8	4	4
B9	4	3

same assay, conditions: HA-SS18WT_CHR_peptides: protein identified in HA-SS18 WT BAF complex purification from nuclease-treated solubilized chromatin (CHR), HEK-293T

Molecule	Total (total peptides)	Unique (unique peptides)
B6	2	2

same assay, conditions: HA-SS18WT_NE_peptides: HA-SS18 WT complexes purified from nuclear extract (NE), HEK-293T; label = protein identified (Gene Symbol)

Molecule	Total (peptides)	Unique (peptides)
B1	3	3
B2	3	3
B4	3	3
B5	3	3
B8	5	5
B9	3	3

same assay, conditions: HA-SS18WT_NE_peptides: proteins co-purified with HA-SS18 WT from nuclear extract (NE), HEK-293T

Molecule	Total (peptides)	Unique (peptides)
B3	1	1
B6	2	2
